For assay [1], the target named is CYSTEINE-RICH RECEPTOR-LIKE KINASE 7 (CRK7), tagged with mCitrine or mScarlet-I (Arabidopsis thaliana) (UniProt Q8L7G3). Nature of the assay: co-IP.
The target is the same in assay [2]. The experiment in a line: FRET or BRET. In general terms: Bioluminescence resonance energy transfer reports proximity on the nanometre scale.
Assay [3] addresses T1, CYSTEINE-RICH RECEPTOR-LIKE KINASE 43 (CRK43), mCitrine-tagged (Arabidopsis thaliana) (UniProt Q9CAC3).
T1 sequence: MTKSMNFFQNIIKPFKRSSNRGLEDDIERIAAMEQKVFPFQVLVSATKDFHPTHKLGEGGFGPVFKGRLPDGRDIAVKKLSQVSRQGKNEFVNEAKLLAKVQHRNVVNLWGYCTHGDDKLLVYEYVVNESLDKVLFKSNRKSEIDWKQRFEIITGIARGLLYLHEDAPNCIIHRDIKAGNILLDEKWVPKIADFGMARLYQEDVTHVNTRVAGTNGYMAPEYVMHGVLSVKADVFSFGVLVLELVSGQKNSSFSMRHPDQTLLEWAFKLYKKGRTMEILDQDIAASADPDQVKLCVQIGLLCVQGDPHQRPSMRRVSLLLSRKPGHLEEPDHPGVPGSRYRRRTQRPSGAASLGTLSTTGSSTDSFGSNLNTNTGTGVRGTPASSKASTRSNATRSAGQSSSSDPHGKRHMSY
Nature of the assay: co-IP.

No constants are given. Whether binding was seen depends on the method and setting. In cells and extracts the contact can be indirect. Some entries that bind do so weakly or less than the wild type. Where a sequence is shown, tags or fusion partners need not be part of it.

B1: CYSTEINE-RICH RECEPTOR-LIKE KINASE 7 (CRK7), tagged with mCitrine or mScarlet-I (receptor, UniProt Q8L7G3 24-659)
chain: QDPRFLAYYCPNATTYSSNSTYLTNLKTLLSSLSSRNASYSTGFQNATVGQALDRVTGLFLCRGDVSPEVCRNCVTFAVNNTFSRCPNQREAVFYYEECILRYSHKNILSTAITNEGEFILRNPNHISPIQNQINQFTNLVLSNMNQIAIEAADNPRKFSTIKTELTALQTFYGLVQCTPDLSRQNCMNCLTSSINRMPFSRIGARQFWPSCNSRYELYDFYNETAIGTPPPPLPPLASPSLSDKSGNSNVVVVAVVVPIIVAVLIFIAGYCFFAKRAKKTYGTTPALDEDDKTTIESLQLDYRAIQAATNDFSENNKIGRGGFGDVYKGTFSNGTEVAVKRLSKTSEQGDTEFKNEVVVVANLRHKNLVRILGFSIEREERILVYEYVENKSLDNFLFDPAKKGQLYWTQRYHIIGGIARGILYLHQDSRLTIIHRDLKASNILLDADMNPKIADFGMARIFGMDQTQQNTSRIVGTYGYMSPEYAMRGQFSMKSDVYSFGVLVLEIISGRKNNSFIETDDAQDLVTHAWRLWRNGTALDLVDPFIADSCRKSEVVRCTHIGLLCVQEDPVKRPAMSTISVMLTSNTMALPAPQQPGFFVRSRPGTNRLDSDQSTTNKSVTVSIDDKSMSDLDPR
Regarding B1, the binding result in assay [1] and in assay [2] was “binds” each time.

B2: CYSTEINE-RICH RECEPTOR-LIKE KINASE 7 (CRK7), as used in the CRK7-CRK43 co-immunoprecipitation (Fig. 4E) (receptor, UniProt Q8L7G3 24-659)
chain: B1 chain
With B2, the binding result in assay [3] was “binds”.

The values above are taken from publication doi:10.1101/2025.09.18.677107.
